Experimental data taken from patent US20260015418A1.
Results are given in words; binding and its absence hold for the method and conditions named. Some binding calls cover weakened binding; strength is not graded here.

Target: T1, human B7-H3 on CHO-huROR1-huB7-H3 cells (human) (UniProt Q5ZPR3)
T1 sequence (looked up): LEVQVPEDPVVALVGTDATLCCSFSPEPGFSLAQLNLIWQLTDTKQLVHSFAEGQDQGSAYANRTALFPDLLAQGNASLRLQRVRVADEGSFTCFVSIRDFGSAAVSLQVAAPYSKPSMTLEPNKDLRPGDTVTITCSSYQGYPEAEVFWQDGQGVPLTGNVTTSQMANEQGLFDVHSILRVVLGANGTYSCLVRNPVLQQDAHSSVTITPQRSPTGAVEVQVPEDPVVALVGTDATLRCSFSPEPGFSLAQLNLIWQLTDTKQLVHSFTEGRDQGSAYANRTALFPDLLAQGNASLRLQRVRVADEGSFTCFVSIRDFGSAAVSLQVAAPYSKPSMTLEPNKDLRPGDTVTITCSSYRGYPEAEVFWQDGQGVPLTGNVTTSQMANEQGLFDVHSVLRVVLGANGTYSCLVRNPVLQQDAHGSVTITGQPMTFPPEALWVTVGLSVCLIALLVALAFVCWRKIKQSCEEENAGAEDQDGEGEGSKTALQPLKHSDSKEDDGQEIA
Assay: flow cytometry on CHO-huROR1-huB7-H3 cells, FITC anti-human IgG, MFI over secondary antibody only

- binding: binds
B1: B5 (antibody, V domains shown)
VH: EVQLLESGGGLVQPGGSLRLSCAASGFTFSDYAMSWVRQAPGKGLEWVSSISSGSGSIYYADSVKGRFTISRDNSKNTLYLQMNSLRAEDTAVYYCAKNLIPLDYWGQGTLVTVSS
VL: QSVLTQPPSASGTPGQRVTISCSGSSSNIGSNAVSWYQQLPGTAPKLLIYYNSHRPSGVPDRFSGSKSGTSASLAISGLRSEDEADYYCGSWDASLNAYVFGGGTKLTVL
